Data taken from PMC10751915.
Results are given in words; binding and its absence hold for the method and conditions named. Some binding calls cover weakened binding; strength is not graded here.

By UniProt entry, the sequences of proteins in these tests, tags left out. Residues count along the entry.
UniProt Q9H7M9, residues 33-194: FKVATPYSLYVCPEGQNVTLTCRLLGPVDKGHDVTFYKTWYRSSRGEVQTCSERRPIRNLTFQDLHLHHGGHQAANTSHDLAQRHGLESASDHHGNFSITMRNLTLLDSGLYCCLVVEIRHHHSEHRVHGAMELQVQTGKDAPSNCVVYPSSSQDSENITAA

What was measured:
Experiment in all cases: ELISA; competition ELISA: MaxiSorp plates coated with human VSIG3, VSIG8 or LRIG1; h-VISTA-ECD-Fc-Avi-tag pre-incubated 1 h at room temperature with KVA12123 or isotype control, then 2 h on the plate; pH 7.4 dilution and wash buffers; streptavidin-HRP; both purified
[1] = molecular target: T1, human LRIG1 (human) (UniProt Q96JA1)
T1 sequence: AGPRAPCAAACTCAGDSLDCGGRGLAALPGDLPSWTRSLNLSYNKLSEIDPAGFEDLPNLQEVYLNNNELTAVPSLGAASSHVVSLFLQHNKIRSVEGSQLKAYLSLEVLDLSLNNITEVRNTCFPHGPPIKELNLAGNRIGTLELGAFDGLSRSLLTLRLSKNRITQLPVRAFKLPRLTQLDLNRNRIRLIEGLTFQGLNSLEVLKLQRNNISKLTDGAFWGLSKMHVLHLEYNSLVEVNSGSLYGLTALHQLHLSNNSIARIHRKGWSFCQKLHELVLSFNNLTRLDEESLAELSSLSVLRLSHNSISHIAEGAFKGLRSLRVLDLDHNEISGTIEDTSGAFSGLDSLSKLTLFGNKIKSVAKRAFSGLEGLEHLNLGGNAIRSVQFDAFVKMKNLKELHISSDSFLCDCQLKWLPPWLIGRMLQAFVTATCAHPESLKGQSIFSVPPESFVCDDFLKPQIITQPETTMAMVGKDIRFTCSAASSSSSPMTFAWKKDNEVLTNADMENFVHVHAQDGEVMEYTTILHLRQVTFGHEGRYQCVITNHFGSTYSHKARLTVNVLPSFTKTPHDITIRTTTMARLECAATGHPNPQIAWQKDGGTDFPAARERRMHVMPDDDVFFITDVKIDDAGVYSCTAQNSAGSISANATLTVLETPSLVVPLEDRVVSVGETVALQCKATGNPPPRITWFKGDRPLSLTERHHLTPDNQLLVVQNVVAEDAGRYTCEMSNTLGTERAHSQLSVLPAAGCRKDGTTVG

[2] = molecular target: T2, human VSIG3 (human) (UniProt Q5DX21)
T2 sequence: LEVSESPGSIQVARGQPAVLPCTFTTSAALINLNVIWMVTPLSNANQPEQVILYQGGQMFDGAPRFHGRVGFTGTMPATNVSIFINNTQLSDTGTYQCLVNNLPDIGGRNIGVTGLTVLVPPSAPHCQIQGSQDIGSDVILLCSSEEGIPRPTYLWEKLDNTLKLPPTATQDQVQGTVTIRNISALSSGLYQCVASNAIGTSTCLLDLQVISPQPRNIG

[3] = molecular target: T3, human VSIG8 (human) (UniProt P0DPA2)
T3 sequence: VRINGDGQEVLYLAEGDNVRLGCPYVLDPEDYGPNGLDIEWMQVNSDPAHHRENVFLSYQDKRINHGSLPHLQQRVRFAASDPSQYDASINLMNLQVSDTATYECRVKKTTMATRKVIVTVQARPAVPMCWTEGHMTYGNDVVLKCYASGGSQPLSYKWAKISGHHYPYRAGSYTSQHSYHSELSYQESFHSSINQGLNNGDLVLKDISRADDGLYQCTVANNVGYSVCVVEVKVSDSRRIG

binding [1]: binds
binding [2]: binds
binding [3]: binds
Substance: h-VISTA-ECD-Fc-Avi-tag (from UniProt Q9H7M9 33-194) (Fc fusion)
